This data set relates to Huh-7 cells. As to the kind of experiment: Cell toxicity / cell viability in the Huh-7 imaging assay.

As for `CCCCc1oc2ccccc2c1C(=O)c1cc(I)c(OCCN(CC)CC)c(I)c1` [Amiodarone], the cell toxicity result is “limited cell toxicity”.

Source of the values: US20240016901A1, “COMPOSITIONS AND METHODS FOR PREVENTING AND TREATING SARS-COV-2 INFECTION” (priority 2020, published 2024).
